# Laboratory results: PubChem BioAssay AID1159584 (Peter MacCallum Cancer Centre, 2016)
# Assay: 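Knock-downs that harm CDH1-null cells more than parental MCF10A cells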 (primary screen)
# Cells: human MCF10A breast epithelial cells, parental and CDH1-null
# Reagent: siRNA against human genes
# Detection: 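ATP luminescence (CellTiter-Glo) viability per line relative to mean mock wells over all plates, and the ratio of CDH1-null to parental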
# Scale: CDH1-null / parental viability ratio: higher = CDH1-null cells survive relatively better than parental; CDH1-null viability vs mock: higher = more viable CDH1-null cells; parental viability vs mock: higher = more viable parental cells
# Shown is a random part of about 18,000 reagents. No sequences are given here. Not given: the amount of reagent, the time to read-out.
target,CDH1-null / parental viability ratio,CDH1-null viability vs mock (fraction of mock),parental viability vs mock (fraction of mock)
DNAAF19 (GeneID 388389),0.93,0.8,0.86
GPRIN1 (GeneID 114787),1,0.62,0.62
OTOP1 (GeneID 133060),1.07,0.79,0.74
ROPN1 (GeneID 54763),1.05,0.67,0.64
PPA2 (GeneID 27068),1.18,0.92,0.78
RPP21 (GeneID 79897),1.25,0.6,0.48
SYT1 (GeneID 6857),0.79,0.46,0.58
FGF20 (GeneID 26281),0.69,0.58,0.84
NTNG2 (GeneID 84628),1.1,0.86,0.78
LGALS14 (GeneID 56891),1.27,0.61,0.48
TGFB2 (GeneID 7042),1.11,1.04,0.94
USP43 (GeneID 124739),1.27,0.62,0.49
NFIA (GeneID 4774),0.99,0.81,0.82
XKR9 (GeneID 389668),1.52,0.94,0.62
SFI1 (GeneID 9814),0.98,0.59,0.6
BAG6 (GeneID 7917),1.23,0.86,0.7
TSPEAR (GeneID 54084),1.09,0.76,0.7
ELL2 (GeneID 22936),0.95,0.82,0.86
MRPL41 (GeneID 64975),0.76,0.44,0.58
AP3D1 (GeneID 8943),0.97,0.84,0.87
WT1 (GeneID 7490),1.12,1.14,1.02
RANBP1 (GeneID 5902),0.88,0.8,0.91
KRTAP6-3 (GeneID 337968),0.82,0.74,0.9
GALE (GeneID 2582),1.11,0.98,0.88
C9orf50 (GeneID 375759),1,0.8,0.8
FBXW7 (GeneID 55294),1.17,0.68,0.58
DAPK3 (GeneID 1613),1.03,1.05,1.02
PIEZO1 (GeneID 9780),0.75,0.59,0.79

Part of the list above, reformatted.
SFI1 (GeneID 9814) → CDH1-null / parental viability ratio = 0.98; CDH1-null viability vs mock (fraction of mock) = 0.59; parental viability vs mock (fraction of mock) = 0.6
BAG6 (GeneID 7917) → CDH1-null / parental viability ratio = 1.23; CDH1-null viability vs mock (fraction of mock) = 0.86; parental viability vs mock (fraction of mock) = 0.7
TSPEAR (GeneID 54084) → CDH1-null / parental viability ratio = 1.09; CDH1-null viability vs mock (fraction of mock) = 0.76; parental viability vs mock (fraction of mock) = 0.7
ELL2 (GeneID 22936) → CDH1-null / parental viability ratio = 0.95; CDH1-null viability vs mock (fraction of mock) = 0.82; parental viability vs mock (fraction of mock) = 0.86
MRPL41 (GeneID 64975) → CDH1-null / parental viability ratio = 0.76; CDH1-null viability vs mock (fraction of mock) = 0.44; parental viability vs mock (fraction of mock) = 0.58
